Measured values: paper PMC9629626

T1: GBPL3-TurboID-3HA (Arabidopsis) (UniProt F4KG14)
T1 sequence: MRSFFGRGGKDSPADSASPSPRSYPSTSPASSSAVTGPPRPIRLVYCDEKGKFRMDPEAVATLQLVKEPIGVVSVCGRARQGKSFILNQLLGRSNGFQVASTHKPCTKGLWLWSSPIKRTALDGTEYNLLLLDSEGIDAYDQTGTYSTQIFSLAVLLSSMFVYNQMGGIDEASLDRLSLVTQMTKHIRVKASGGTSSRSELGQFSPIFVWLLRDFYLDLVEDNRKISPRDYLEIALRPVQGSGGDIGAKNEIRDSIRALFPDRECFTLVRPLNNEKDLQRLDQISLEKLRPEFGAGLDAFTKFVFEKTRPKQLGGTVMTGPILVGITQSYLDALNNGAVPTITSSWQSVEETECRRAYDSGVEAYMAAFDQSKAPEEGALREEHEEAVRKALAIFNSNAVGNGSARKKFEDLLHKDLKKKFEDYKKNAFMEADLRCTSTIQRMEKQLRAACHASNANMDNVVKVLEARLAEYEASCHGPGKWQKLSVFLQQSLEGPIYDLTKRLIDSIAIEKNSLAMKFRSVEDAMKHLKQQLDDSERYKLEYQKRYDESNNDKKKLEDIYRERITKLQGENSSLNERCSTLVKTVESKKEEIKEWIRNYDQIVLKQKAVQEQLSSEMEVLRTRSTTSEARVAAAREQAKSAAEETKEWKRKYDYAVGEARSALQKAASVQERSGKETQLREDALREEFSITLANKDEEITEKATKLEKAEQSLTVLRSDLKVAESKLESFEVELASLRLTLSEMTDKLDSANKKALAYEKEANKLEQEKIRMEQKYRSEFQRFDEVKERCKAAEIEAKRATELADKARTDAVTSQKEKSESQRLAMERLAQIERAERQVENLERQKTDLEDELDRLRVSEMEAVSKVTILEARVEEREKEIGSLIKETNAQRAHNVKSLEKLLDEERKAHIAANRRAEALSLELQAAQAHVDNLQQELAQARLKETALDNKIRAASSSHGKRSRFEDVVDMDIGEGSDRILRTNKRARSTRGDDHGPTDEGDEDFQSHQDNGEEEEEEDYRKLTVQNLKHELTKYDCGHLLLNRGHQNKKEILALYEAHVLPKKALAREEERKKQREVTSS

B1: SNW/SKI-… PROTEIN (SKIP) (protein, UniProt O80653 1-613)
chain: MKSLNDLPAPKSTTTTYYDHSNDAWFKNRVTESETVKSSSIKFKVVPAYLNRQGLRPKNPEDFGDGGAFPEIHLPQYPLLMGKNKSNKPGAKTLPVTVDAQGNVVFDAIVRQNENSRKIVYSQHKDIIPKFLKNEGDLGTVVDEEEELQKEIQETAEETKAAIEKIVNVRLSAAQPSNIARQSGDSQYIKYKPSQQSSAFNSGAKERIIRMVEMPVDPLDPPKFKHKRVPRASGSPPVPVMHSPPRPVTVKDQQDWKIPPCISNWKNPKGYTIPLDKRLAADGRGLQDVQINDNFAKLSEALYVAEQKAREAVSMRSKVQKEMVMKDKERKEQELRALAQKARSERTGAAMSMPVSSDRGRSESVDPRGDYDNYDQDRGREREREEPQETREEREKRIQREKIREERRRERERERRLDAKDAAMGKKSKITRDRDRDISEKVALGMASTGGKGGGEVMYDQRLFNQDKGMDSGFAADDQYNLYDKGLFTAQPTLSTLYKPKKDNDEEMYGNADEQLDKIKNTERFKPDKAFTGASERVGSKRDRPVEFEKEEEQDPFGLEKWVSDLKKGKKPLDKIGSGGTMRASGGGGSSSRDDDHGGSGRTKINFERSDRR
B2: F OLIGOURIDYLATE BINDING PROTEIN 1C (UBP1C) (protein, UniProt Q9LJH8 1-427)
chain: MQNPRLKQHQQQQQQQAMMQQQALMQQHSLYHPGVLAPPQLEPVPSGNLPPGFDPSTCRSVYVGNIHTQVTEPLLQEIFTSTGPVESSKLIRKDKSSYGFVHYFDRRSAALAILSLNGRHLFGQPIKVNWAYATGQREDTSSHFNIFVGDLSPEVTDATLYQSFSVFSSCSDARVMWDQKTGRSRGFGFVSFRNQQDAQTAINEMNGKWLSSRQIRCNWATKGATSGDDKLSSDGKSVVELTTGSSEDGKETLNEETPENNSQFTTVYVGNLAPEVTQLDLHRYFHALGAGVIEEVRVQRDKGFGFVRYNTHPEAALAIQMGNTQPYLFNRQIKCSWGNKPTPPGTASNPLPPPAPAPVPGLSAADLLNYERQLALSKMASVNALMHQQGQHPLRQAHGINAAGATAAMYDGGFQNVAAAQQLMYYQ
B3: ARABIDOPSIS RESPONSE REGULATOR 1 (ARR1) (protein, UniProt Q940D0 1-690)
chain: MMNPSHGRGLGSAGGSSSGRNQGGGGETVVEMFPSGLRVLVVDDDPTCLMILERMLRTCLYEVTKCNRAEMALSLLRKNKHGFDIVISDVHMPDMDGFKLLEHVGLEMDLPVIMMSADDSKSVVLKGVTHGAVDYLIKPVRMEALKNIWQHVVRKRRSEWSVPEHSGSIEETGERQQQQHRGGGGGAAVSGGEDAVDDNSSSVNEGNNWRSSSRKRKDEEGEEQGDDKDEDASNLKKPRVVWSVELHQQFVAAVNQLGVEKAVPKKILELMNVPGLTRENVASHLQKYRIYLRRLGGVSQHQGNLNNSFMTGQDASFGPLSTLNGFDLQALAVTGQLPAQSLAQLQAAGLGRPAMVSKSGLPVSSIVDERSIFSFDNTKTRFGEGLGHHGQQPQQQPQMNLLHGVPTGLQQQLPMGNRMSIQQQIAAVRAGNSVQNNGMLMPLAGQQSLPRGPPPMLTSSQSSIRQPMLSNRISERSGFSGRNNIPESSRVLPTSYTNLTTQHSSSSMPYNNFQPELPVNSFPLASAPGISVPVRKATSYQEEVNSSEAGFTTPSYDMFTTRQNDWDLRNIGIAFDSHQDSESAAFSASEAYSSSSMSRHNTTVAATEHGRNHQQPPSGMVQHHQVYADGNGGSVRVKSERVATDTATMAFHEQYSNQEDLMSALLKQEGIAPVDGEFDFDAYSIDNIPV
B4: C-TERMINAL DOMAIN PHOSPHATASE-LIKE 1 (CPL1) (protein, UniProt Q5YDB6 1-967)
chain: MYSNNRVEVFHGDGRLGELEIYPSRELNQQQDDVMKQRKKKQREVMELAKMGIRISHFSQSGERCPPLAILTTISSCGLCFKLEASPSPAQESLSLFYSSCLRDNKTAVMLLGGEELHLVAMYSENIKNDRPCFWAFSVAPGIYDSCLVMLNLRCLGIVFDLDETLVVANTMRSFEDKIDGFQRRINNEMDPQRLAVIVAEMKRYQDDKNLLKQYIESDQVVENGEVIKVQSEIVPALSDNHQPLVRPLIRLQEKNIILTRINPMIRDTSVLVRMRPSWEELRSYLTAKGRKRFEVYVCTMAERDYALEMWRLLDPEGNLINTNDLLARIVCVKSGFKKSLFNVFLDGTCHPKMALVIDDRLKVWDEKDQPRVHVVPAFAPYYSPQAEAAATPVLCVARNVACGVRGGFFRDFDDSLLPRIAEISYENDAEDIPSPPDVSHYLVSEDDTSGLNGNKDPLSFDGMADTEVERRLKEAISASSAVLPAANIDPRIAAPVQFPMASASSVSVPVPVQVVQQAIQPSAMAFPSIPFQQPQQPTSIAKHLVPSEPSLQSSPAREEGEVPESELDPDTRRRLLILQHGQDTRDPAPSEPSFPQRPPVQAPPSHVQSRNGWFPVEEEMDPAQIRRAVSKEYPLDSEMIHMEKHRPRHPSFFSKIDNSTQSDRMLHENRRPPKESLRRDEQLRSNNNLPDSHPFYGEDASWNQSSSRNSDLDFLPERSVSATETSADVLHGIAIKCGAKVEYKPSLVSSTDLRFSVEAWLSNQKIGEGIGKSRREALHKAAEASIQNLADGYMRANGDPGPSHRDATPFTNENISMGNANALNNQPFARDETALPVSSRPTDPRLEGSMRHTGSITALRELCASEGLEMAFQSQRQLPSDMVHRDELHAQVEIDGRVVGEGVGSTWDEARMQAAERALSSVRSMLGQPLHKRQGSPRSFGGMSNKRLKPDFQRSLQRMPSSGRYS
B5: CRWN2 (protein, UniProt Q9SAF6 1-1128)
chain: MTPRSETHKIGGVTNPRNADRKGKAVAFSDDLVIPTLPPPPIGTLTGQGVSRGHTDDMDMGDWRRFREVGLLNEASMEKKDQEALLEKISTLEKELYGYQHNMGLLLMENKELVSKHEQLNQAFQEAQEILKREQSSHLYALTTVEQREENLRKALGLEKQCVQELEKALREIQEENSKIRLSSEAKLVEANALVASVNGRSSDVENKIYSAESKLAEATRKSSELKLRLKEVETRESVLQQERLSFTKERESYEGTFQKQREYLNEWEKKLQGKEESITEQKRNLNQREEKVNEIEKKLKLKEKELEEWNRKVDLSMSKSKETEEDITKRLEELTTKEKEAHTLQITLLAKENELRAFEEKLIAREGTEIQKLIDDQKEVLGSKMLEFELECEEIRKSLDKELQRKIEELERQKVEIDHSEEKLEKRNQAMNKKFDRVNEKEMDLEAKLKTIKEREKIIQAEEKRLSLEKQQLLSDKESLEDLQQEIEKIRAEMTKKEEMIEEECKSLEIKKEEREEYLRLQSELKSQIEKSRVHEEFLSKEVENLKQEKERFEKEWEILDEKQAVYNKERIRISEEKEKFERFQLLEGERLKKEESALRVQIMQELDDIRLQRESFEANMEHERSALQEKVKLEQSKVIDDLEMMRRNLEIELQERKEQDEKDLLDRMAQFEDKRMAELSDINHQKQALNREMEEMMSKRSALQKESEEIAKHKDKLKEQQVEMHNDISELSTLSINLKKRREVFGRERSRFLAFVQKLKDCGSCGQLVNDFVLSDLQLPSNDEVAILPPIGVLNDLPGSSNASDSCNIKKSLDGDASGSGGSRRPSMSILQKCTSIIFSPSKRVEHGIDTGKPEQRLSSSVAVGMETKGEKPLPVDLRLRPSSSSIPEEDEEYTDSRVQETSEGSQLSEFQSSRRGRGRPRKAKPALNPTSSVKHASLEESSKDELSGHVSVTSKKTTGGGGRKRQHIDDTATGGKRRRQQTVAVLPQTPGQRHYNLRRKKTVDQVPADVEDNAAAGEDDADIAASAPSKDTVEETVVETLRARRIETNADVVSAENNGDVPVANVEPTVNEDTNEDGDEEEDEAQDDDNEENQDDDDDDDGDDDGSPRPGEGSIRKKLWTFLTT

These binders were tested against T1, GBPL3-TurboID-3HA (Arabidopsis) (assay: proximity labelling; GBPL3-TurboID-3HA (native promoter) as bait in 1-week-old Arabidopsis seedlings, 50 uM biotin 4 h at room temperature; biotinylated proteins on streptavidin beads; label-free quantitative mass spectrometry; cutoffs fold-change > 4, p < 0.01 against wild-type non-transformants; 2 biological replicates).

Row | binding | Binder
1 | binds | B1
2 | binds | B2
3 | binds | B3
4 | binds | B4
5 | binds | B5

No constants are given. Whether binding was seen depends on the method and setting. Binding seen in cells or lysates may run through a third protein. Here binding means that the protein was enriched with, or labelled near, the bait; the list need not be complete.
